No constants are given. Whether binding was seen depends on the method and setting. Some binding calls cover weakened binding; strength is not graded here.
Molecular target: PAF53 (human) (UniProt Q9GZS1)
Test: cryo-EM structure; hPol I elongation complex in the post-translocation state (EC^post) on a DNA-RNA scaffold, 2.8 A; peripheral subunits (RPA43, PAF53, PAF49) from a glutaraldehyde-crosslinked EC^post sample, 3.89 A; EC^pre of almost identical overall fold; both purified

| Substance | binding |
| --- | --- |
| PAF49 (from UniProt O15446 1-510) | binds |
| RPA12 (from UniProt Q9P1U0 1-126) | binds |
